Experimental data: PubChem BioAssay AID540276 (National Center for Advancing Translational Sciences (NCATS), 2011)
“And” between values parts separate entries of the source, which are not always exact repeats. Identical values can stand only once. Screen size: about 300,000 compounds; about 5,400 (1.8%) were called active. Inconclusive results, whose numbers are uncertain, are shown with a selection of clear calls. Calls follow the shape of the full dose curve; tested in HEK293 cells. Potencies beside an inconclusive call are fits to weak or partial responses and may not hold up.
% is scaled to controls: 0 for no effect and ±100 for the full control effect; potency is read from the fitted curve at half-maximal effect.

Experiment: qHTS for inhibitors of binding or entry into cells for Marburg Virus
Details: Marburg virus pseudotyped entry inhibition, cell reporter; activity change, negative = inhibition: at 37.8 µM (top of the series) unless noted
In the case of `CCc1ccccc1NC(=S)N(CCCN1CCN(C)CC1)Cc1cccs1`, the Potency is reported as inconclusive: 35.5 µM [inhibitor, single point]. For `CCNC(=O)c1sc2cc(C)ccc2c1Cl`, the “activity change, negative = inhibition” value was inactive: 7.13% [at 46.1 µM]. For `CC1=NOC2(C1)N(C)c1ccccc1C2(C)C` (centres undefined), the “activity change, negative = inhibition” value was inactive: 0.98%. For `COc1ccc(C(=O)N2CCN(c3nc4cc(C)ccc4cc3C#N)CC2)c(OC)c1`, the Potency was inconclusive: 17.8 µM [inhibitor, partial curve]. With `COc1ccc(OC)c(S(=O)(=O)n2cnc3ccccc32)c1` the Potency was inconclusive: 3.98 µM [inhibitor, partial curve, poor fit]. With `COc1ccc(C(=O)Nc2ccccc2C(=O)NCc2cccnc2)cc1` the Potency was inconclusive: 7.08 µM [inhibitor, full curve, poor fit]. In the case of `COC(=O)c1ccc(C(=O)OC)c(NC(=O)CN(c2ccccc2)S(=O)(=O)N(C)C)c1`, the Potency is reported as “inactive and inconclusive: 14.1 µM [inhibitor, partial curve, poor fit]”. With `COC(=O)C1CCc2c(ccc3c2CCCC3)C1=O` (centres undefined) the Potency was inconclusive: 2.82 µM [activator, full curve, poor fit]. For `O=C(Cc1cccc2ccccc12)Nc1c(F)cccc1F`, the “activity change, negative = inhibition” value was inactive: 2.49% [at 46.1 µM]. For `Cc1nc(C(F)(F)F)nc(Nc2ccc(N=Nc3ccccc3)cc2)c1C#N`, the Potency was inconclusive: 1.78 µM [inhibitor, partial curve, poor fit]. With `CCOC(=O)c1[nH]c2cc(OC)c(OC)cc2c1NC(=O)C(C)N1CCN(Cc2ccccc2)CC1` (centres undefined) the Potency was inconclusive: 35.5 µM [inhibitor, single point]. With `CCOCCCn1c(=N)c(C(=O)NCc2cccnc2)cc2c(=O)n3ccccc3nc21` the Potency was inconclusive: 35.5 µM [inhibitor, partial curve, poor fit]. With `CCN(CC)C(=O)c1ccc2c(c1)N(Cc1ccc(C(F)(F)F)cc1)C(=O)c1ccccc1S2` the “activity change, negative = inhibition” value was inactive: 0.406% [at 46.1 µM]. In the case of `CCn1c(CC(=O)Nc2ccc(Cl)cc2)nnc1SCC(=O)N1CCOCC1`, the Potency is reported as inconclusive: 11.2 µM [activator, single point]. With `Cc1cc(NC(=O)CSc2nc3ccsc3c(=O)n2CCCC(=O)NCCc2ccccc2)no1` the Potency was inconclusive: 11.2 µM [inhibitor, partial curve, poor fit]. In the case of `COc1ccc(C2=NN(C(=O)CSc3nc4ccccc4s3)C(c3ccc(F)cc3)C2)cc1` (centres undefined), the Potency is reported as inconclusive: 35.5 µM [inhibitor, single point]. With `Cc1ccc(C(=O)Nc2ccc3c(c2)nc2n3CCSC2)cc1` the Potency was inconclusive: 25.9 µM [inhibitor, single point]. For `COCCC1CCCCN1C(=O)c1cc(COc2ccc(-n3cncn3)cc2)on1` (centres undefined), the Potency was inconclusive: 2.24 µM [inhibitor, full curve]. With `Cc1cccc(NC(=S)N2CCN(S(=O)(=O)c3cccc(F)c3)CC2)c1` the Potency was inconclusive: 17.8 µM [inhibitor, single point]. With `Cc1cc(-c2nn(-c3ccccc3F)cc2CN2CCN(c3ccncc3)CC2)c(C)s1` the Potency was active: 6.31 µM. For `Cc1nc(NC(=O)c2ccc(F)cc2)sc1C(=O)Nc1ccc2c(c1)CCC2`, the “activity change, negative = inhibition” value was inactive: -6.01%. With `O=C(CN1CCCC1)Nc1ccc(Cl)cc1C(F)(F)F` the Potency was inconclusive: 0.58 µM [activator, full curve, poor fit]. In the case of `CCOc1ccc(OCC)c(-c2c(=O)n(OCc3ccccc3Br)c3ccccc3[n+]2[O-])c1`, the “activity change, negative = inhibition” value is reported as inactive: -20.2%. In the case of `CN=C1SC(CC(=O)Nc2ccc(F)cc2F)C(=O)N1/N=C/c1ccc(OC(F)F)c(OC)c1` (centres undefined), the “activity change, negative = inhibition” value is reported as inactive: 1.59% [at 46.1 µM]. For `COc1ccc(C(=O)N2CCN(c3ccccn3)CC2)cc1[N+](=O)[O-]`, the “activity change, negative = inhibition” value was inactive: -14.3% [at 46.1 µM]. With `CC(C#N)OC(=O)c1cccnc1SCC(=O)Nc1ccc2c(c1)OCO2` (centres undefined) the Potency was inconclusive: 3.16 µM [activator, partial curve, poor fit]. With `O=C(Nc1ccccc1Cl)c1ccccc1Oc1ccc(C(F)(F)F)cc1[N+](=O)[O-]` the Potency was inconclusive: 11.2 µM [inhibitor, partial curve, poor fit]. For `CCOc1ccccc1NC(=O)c1sc2nc(C)cc(C)c2c1N`, the “activity change, negative = inhibition” value was inactive: 8.12% [at 46.1 µM]. With `Cc1coc2c(C)c3oc(=O)c(CC(=O)NCc4ccccc4)c(C)c3cc12` the “activity change, negative = inhibition” value was inactive: -8.89% [at 46.1 µM]. With `O=C(N/N=C/c1ccncc1)c1cccc(N/N=C/c2ccncc2)c1` the Potency was inconclusive: 2.24 µM [inhibitor, full curve, poor fit]. For `CC(=O)c1c(C)[nH]c(C(=O)OCCCCN2C(=O)c3ccccc3C2=O)c1C`, the Potency was active: 8.2 µM. In the case of `O=S(=O)(N/N=C/c1cccc(OC2CSC2)c1)c1ccccc1`, the “activity change, negative = inhibition” value is reported as inactive: 2.67%. For `C/C(=C(\C#N)C(=O)NCc1ccccc1)N(C)C`, the Potency was inconclusive: 2.51 µM [inhibitor, partial curve, poor fit]. In the case of `Cc1c(Br)c([N+](=O)[O-])nn1CC(=O)Nc1ccc(Cc2ccncc2)cc1`, the Potency is reported as inconclusive: 1.64 µM [inhibitor, partial curve, poor fit]. With `Cc1nn2cc(-c3ccc(Cl)cc3)nc2s1` the Potency was inconclusive: 29.1 µM [inhibitor, single point]. For `O=C(COc1ccccc1)Nc1ccc(S(=O)(=O)N2CCCCCC2)cc1`, the “activity change, negative = inhibition” value was inactive: 5.69%. In the case of `O=C(CC(CC(=O)c1ccc(Br)cc1)c1cccnc1)c1ccc(Br)cc1`, the Potency is reported as inconclusive: 11.2 µM [inhibitor, partial curve, poor fit]. For `COc1ccccc1CNC(=O)c1c(-c2ccccc2)nn(-c2ccccc2)c1C`, the “activity change, negative = inhibition” value was inactive: -13.3% [at 46.1 µM]. In the case of `CC1(C)CC(=O)C2=C(C1)Nc1cc(Cl)ccc1S2`, the Potency is reported as inconclusive: 3.55 µM [activator, single point]. With `C=CCOC(=O)N[C@@H](Cc1ccccc1)/C(C(=O)OC)=C(\C)NCc1ccccc1` the “activity change, negative = inhibition” value was inactive: -10.9% [at 14.2 µM]. For `Cc1cc(C)c(C#N)c(SCc2ccccc2C)n1`, the Potency was inconclusive: 6.31 µM [activator, single point]. For `CCCCn1c(SCC(=O)NCc2ccco2)nc2ccc(N3CCOCC3)cc2c1=O`, the “activity change, negative = inhibition” value was inactive: -28.3%. With `COc1ccccc1C1C2=C(COC2=O)Nc2cc3c(cc21)OCO3` (centres undefined) the “activity change, negative = inhibition” value was inactive: 5.47%. In the case of `CCc1ccc(/C=C/C(=O)C2C(=O)c3ccccc3C2=O)cc1`, the Potency is reported as inconclusive: 29.1 µM [inhibitor, single point]. In the case of `C/C(=N\Nc1ccc(S(=O)(=O)N2CCCCC2)cn1)c1ccc(O)cc1`, the “activity change, negative = inhibition” value is reported as inactive: -12%. For `COc1ccc(-c2csc3ncn(-c4ccc(C)cc4)c(=O)c23)cc1OC`, the Potency was inconclusive: 14.1 µM [inhibitor, partial curve, poor fit]. For `COc1ccc(Br)cc1/C=C/C(=O)Nc1ccc(C)cc1`, the Potency was inconclusive: 6.31 µM [inhibitor, single point]. In the case of `COc1ccc(NC(=O)c2cc(C)nn2-c2ccccc2)cc1`, the Potency is reported as inconclusive: 14.1 µM [inhibitor, single point]. For `COc1ccccc1-c1nc(S(=O)(=O)c2ccccc2)c(N2CCOCC2)o1`, the Potency was inconclusive: 2.24 µM [inhibitor, partial curve, poor fit]. With `CC(c1ccon1)N(C)Cc1cn(C)nc1-c1cccc(Cl)c1` (centres undefined) the “activity change, negative = inhibition” value was inactive: -6.97% [at 46.1 µM]. In the case of `CCOCCCn1c(SCC(=O)NC(C)C)nc2ccccc2c1=O`, the “activity change, negative = inhibition” value is reported as inactive: -0.295%. For `CCc1ccccc1N(C)C(=O)CCc1nc(-c2ccc(C)cc2)no1`, the Potency was inconclusive: 1.12 µM [inhibitor, full curve, poor fit]. In the case of `Cc1ccc(C(=O)Nc2cc([N+](=O)[O-])ccc2F)s1`, the “activity change, negative = inhibition” value is reported as inactive: -12.6%. For `CC(=O)Nc1cccc(N(C)S(C)(=O)=O)c1`, the “activity change, negative = inhibition” value was inactive: 28%. With `CCc1nnc(NC(=O)CSc2nnc(CNc3ccc(Cl)cc3)o2)s1` the Potency was inconclusive: 29.1 µM [inhibitor, partial curve, poor fit]. For `O=C(Cc1ccccc1)N/N=C/c1cc(Br)c(Br)o1`, the “activity change, negative = inhibition” value was inactive: 14%. With `CC1CCc2noc(NC(=O)c3ccccc3[N+](=O)[O-])c2C1` (centres undefined) the “activity change, negative = inhibition” value was inactive: 13.9% [at 46.1 µM]. For `CCCCCCOC(=O)Cc1c(C)nc(-c2ccccc2)[nH]c1=O`, the “activity change, negative = inhibition” value was inactive: -2.96%. In the case of `COCCCNC(=O)c1ccc(Cn2c(=O)c3ccccc3n(CC(=O)NCCc3ccc(OC)c(OC)c3)c2=O)cc1`, the Potency is reported as inconclusive: 35.5 µM [inhibitor, single point]. For `CNC(=O)C1(C)C=CCN1C(=O)c1ccccc1` (centres undefined), the “activity change, negative = inhibition” value was inactive: -27.9%. In the case of `CCN(C(=O)Cn1ncc2c(=O)oc3ccc(C)cc3c21)c1cc(OC)ccc1OC`, the “activity change, negative = inhibition” value is reported as inactive: 2.15% [at 46.1 µM]. For `O=C(Nc1cccnc1)c1ccc(COc2cc(Cl)ccc2Cl)o1`, the Potency was inconclusive: 11.2 µM [inhibitor, single point]. For `CCOC(=O)CNC(=O)CSc1nccn1Cc1ccco1`, the “activity change, negative = inhibition” value was inactive: -20.3%. In the case of `COc1ccc(C2C=C(c3ccc(Cl)cc3)Nc3nc(NC(C)=O)nn32)cc1` (centres undefined), the “activity change, negative = inhibition” value is reported as inactive: 0.934%. For `CCCOc1ccccc1C(=O)N1CCCCC1CCN1CCOCC1` (centres undefined), the “activity change, negative = inhibition” value was inactive: 1.1% [at 46.1 µM]. In the case of `CCN(CC)C(=O)CCCc1c[nH]c2ccccc12`, the “activity change, negative = inhibition” value is reported as inactive: 3.93% [at 46.1 µM]. For `Cc1ccc(C(=O)N2CCC(Cc3ccccc3)CC2)cc1S(=O)(=O)N1CCOCC1`, the Potency was inconclusive: 25.1 µM [inhibitor, single point]. For `COc1cccc(OC)c1C(=O)NCCN1CCN(C(=O)c2c(OC)cccc2OC)CC1`, the “activity change, negative = inhibition” value was inactive: 5.7%. For `CCOC(=O)CN1C(=O)C(Sc2n[nH]c(-c3cccc(C)c3)n2)CCc2ccccc21` (centres undefined), the Potency was inconclusive: 29.1 µM [inhibitor, single point]. With `O=S1(=O)N(Cc2ccccc2F)CCCN1Cc1c(F)cccc1Cl` the Potency was inconclusive: 7.94 µM [inhibitor, single point]. For `Cc1ccc(C(=O)O)c(C(=O)Nc2nc(C)cs2)c1`, the “activity change, negative = inhibition” value was inactive: 22.6%. For `COc1ccc(NC(=O)N2CCCC2C(=O)Nc2ccccc2)cc1` (centres undefined), the “activity change, negative = inhibition” value was inactive: -2.71%. With `O=C(N=C1c2ccccc2CN1c1ccc(F)cc1)c1ccc(Cl)nc1` the “activity change, negative = inhibition” value was inactive: 3.27%. In the case of `CCn1c(C)nc2cc(C(=O)NN=C(C)c3ccc(C#N)cc3)ccc21`, the Potency is reported as inconclusive: 0.562 µM [activator, full curve, poor fit].
